Results deposited as PubChem BioAssay AID1053208 (Peter MacCallum Cancer Centre, 2014)
Purpose: 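Synthetic lethal interactions between gene loss and doxorubicin in osteosarcoma cells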 (primary screen). Cell system: mouse osteosarcoma cells, early-passage culture from an engineered mouse model of fibroblastic bone tumour. Reagents: siRNA pool against mouse genes, 40 nM. Timing: about 120 h (48 h before drug, then 72 h with drug). Challenge: doxorubicin 100 nM for 72 h, roughly 30-40% inhibitory dose. Read-out: 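Luminescent ATP signal taken as viability with or without 100 nM doxorubicin for 72 h; mean of two wells set against non-targeting siRNA and turned into robust z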. Scale: viability z-score with doxorubicin: higher = more viable cells under doxorubicin; viability z-score without drug: higher = more viable cells with knock-down alone. Call rule: 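Called active if knock-down leaves viability unchanged without drug (z within -2 to 2) but lowers it with doxorubicin (z at or under -2)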.
In all, the deposit lists about 17,000 reagents; below is a random part of them. In the full data, 788 (4.7%) got an active call. 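Calls rest on z-score classes alone; an extra cut-off of viability at most 70% of control was not applied to them.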 Further read-outs or replicates are left out here.

| target gene | combined z-score class | viability z-score with doxorubicin | viability z-score without drug | outcome |
| --- | --- | --- | --- | --- |
| Gbx2 (gastrulation brain homeobox 2) | no change with or without drug | -0.22 | -0.67 | inactive |
| Cmtm8 (CKLF-like MARVEL transmembrane domain containing 8) | no change with or without drug | -1.8 | -1.18 | inactive |
| Rtbdn (retbindin) | no change with or without drug | -0.67 | -1.35 | inactive |
| Tafa2 (TAFA chemokine like family member 2) | high cell count without drug only | -0.56 | 2.02 | inactive |
| Krt4 (keratin 4) | no change with or without drug | -0.22 | 0.51 | inactive |
| Glra3 (glycine receptor, alpha 3 subunit) | no change with or without drug | -0.22 | -1.18 | inactive |
| Fam120c (family with sequence similarity 120, member C) | no change with or without drug | 0 | -0.51 | inactive |
| Snx2 (sorting nexin 2) | no change with or without drug | 0 | 0.17 | inactive |
| Slc37a3 | no change with or without drug | -1.57 | -1.35 | inactive |
| Vgll4 (vestigial like family member 4) | no change with or without drug | 0.45 | -0.51 | inactive |
| Slco2a1 | no change with or without drug | -0.9 | -0.51 | inactive |
| Ide (insulin degrading enzyme) | no change with or without drug | -0.9 | -1.52 | inactive |
| Nfix (nuclear factor I/X) | no change with or without drug | 1.12 | 0 | inactive |
| Slc4a1 | no change with or without drug | 0.9 | 0.84 | inactive |
| Col9a2 (collagen, type IX, alpha 2) | no change with or without drug | 0.56 | 0.17 | inactive |
| Mpnd (MPN domain containing) | no change with or without drug | -1.8 | -1.52 | inactive |
| Acss3 (acyl-CoA synthetase short-chain family member 3) | no change with or without drug | -1.12 | -0.84 | inactive |
| Nmnat3 (nicotinamide nucleotide adenylyltransferase 3) | high cell count without drug only | 1.57 | 3.37 | inactive |
| Or6c68 (olfactory receptor family 6 subfamily C member 68) | no change with or without drug | -1.01 | 0.17 | inactive |
| Or4c111 (olfactory receptor family 4 subfamily C member 111) | no change with or without drug | -0.45 | -0.17 | inactive |
| Pllp (plasma membrane proteolipid) | no change with or without drug | 0.11 | 0.17 | inactive |
| Or5b122 (olfactory receptor family 5 subfamily B member 122) | no change with or without drug | 0.45 | -0.51 | inactive |
| Sh2d1a (SH2 domain containing 1A) | no change with or without drug | 0 | 0.84 | inactive |
| Oca2 (oculocutaneous albinism II) | no change with or without drug | 0.45 | -0.84 | inactive |
| Hivep2 | no change with or without drug | 1.35 | 0.51 | inactive |
| Cdh8 (cadherin 8) | no change with or without drug | 0.11 | 1.52 | inactive |
| Tubgcp5 (tubulin, gamma complex component 5) | no change with or without drug | -1.57 | -1.52 | inactive |
| Grpel1 (GrpE-like 1, mitochondrial) | no change with or without drug | -1.35 | -1.18 | inactive |
| Ctsd (cathepsin D) | no change with or without drug | 0.56 | -0.51 | inactive |
| Hhipl2 (hedgehog interacting protein-like 2) | low cell count with doxorubicin only | -3.04 | 0.67 | active |
| Dclre1a (DNA cross-link repair 1A) | high cell count with doxorubicin only | 2.02 | 1.52 | inactive |
| Gtf2a1l (general transcription factor IIA, 1-like) | no change with or without drug | 0.56 | 0 | inactive |
| Aven (apoptosis, caspase activation inhibitor) | no change with or without drug | -0.22 | 1.52 | inactive |
| Acox3 (acyl-Coenzyme A oxidase 3, pristanoyl) | no change with or without drug | 1.01 | 1.18 | inactive |
| Ciao2a (cytosolic iron-sulfur assembly component 2A) | no change with or without drug | 0.22 | 0.51 | inactive |
| Cox15 (cytochrome c oxidase assembly protein 15) | no change with or without drug | 0.11 | -0.84 | inactive |
| Or13a1 (olfactory receptor family 13 subfamily A member 1) | no change with or without drug | 1.57 | 1.35 | inactive |
| Nxph4 (neurexophilin 4) | low cell count with and without drug | -2.92 | -3.2 | inactive |
| Cox14 (cytochrome c oxidase assembly protein 14) | no change with or without drug | -0.56 | 0.51 | inactive |
| Msrb2 (methionine sulfoxide reductase B2) | no change with or without drug | 1.35 | -1.52 | inactive |
| Rgr (retinal G protein coupled receptor) | no change with or without drug | -0.11 | -0.34 | inactive |
| Tnr (tenascin R) | no change with or without drug | 0.67 | 0.51 | inactive |
| Hsd3b5 | no change with or without drug | 0.45 | 0.17 | inactive |
| Sema4g | no change with or without drug | 0 | -1.01 | inactive |
| Tlr2 (toll-like receptor 2) | no change with or without drug | 0.9 | 0.84 | inactive |
| Slc24a2 | low cell count with doxorubicin only | -2.47 | -0.17 | active |
| 9930038B18Rik (RIKEN cDNA 9930038B18 gene) | high cell count with doxorubicin only | 3.04 | 0.34 | inactive |
| Gabbr1 (gamma-aminobutyric acid type B receptor subunit 1) | no change with or without drug | -0.67 | -0.17 | inactive |
| Ccl3 (C-C motif chemokine ligand 3) | no change with or without drug | 0.22 | 0.17 | inactive |
| Gabarap (gamma-aminobutyric acid receptor associated protein) | no change with or without drug | 0 | 0.84 | inactive |

Just “combined z-score class”, for 7 of the entries above:
Cdh8 (cadherin 8)	no change with or without drug
Tubgcp5 (tubulin, gamma complex component 5)	no change with or without drug
Grpel1 (GrpE-like 1, mitochondrial)	no change with or without drug
Ctsd (cathepsin D)	no change with or without drug
Hhipl2 (hedgehog interacting protein-like 2)	low cell count with doxorubicin only
Dclre1a (DNA cross-link repair 1A)	high cell count with doxorubicin only
Gtf2a1l (general transcription factor IIA, 1-like)	no change with or without drug
